Data published in PMC4395418, “The Aspartate-Less Receiver (ALR) Domains: Distribution, Structure and Function” (PLoS Pathogens, 2015).
Results are given in words; binding and its absence hold for the method and conditions named.

Tests used:
[1] = target: RitR ALR (REC) receiver domain, wild-type (Streptococcus pneumoniae strain R800); assay: SEC; purified 15N-labelled RitRALR (ALR domain only) wild-type and Ala mutants; oligomeric state; both purified
[2] = target: RitR ALR (REC) receiver domain, wild-type (Streptococcus pneumoniae strain R800); assay: NMR (1H-15N HSQC and three-dimensional spectra compared between wild type and mutants); RitRALR variants in 40 mM 2H-Tris-HCl pH 7.6, 300 mM NaCl, 10% D2O, 0.02% NaN3; 600 MHz, 25 C; both purified
[3] = target: RitR ALR (REC) receiver domain, wild-type (Streptococcus pneumoniae strain R800); assay: crystal structure; RitRALR, hanging drop, space group P1, 1.6 A; both purified
[4] = target: T1, Repressor of Iron Transport Regulator (RitR), full-length, wild-type (Streptococcus pneumoniae strain R800), A0ACD7; assay: SEC; RitRFL wild-type and mutants; Agilent 1220 HPLC, BioBasic SEC-300A column, 50 mM TRIS pH 8.0, 150 mM NaCl, 10 mM DTT; proteins pre-treated with 10 mM DTT; 0.5 ml/min, ambient temperature; both purified; conditions: remark: other sources report otherwise
T1 chain: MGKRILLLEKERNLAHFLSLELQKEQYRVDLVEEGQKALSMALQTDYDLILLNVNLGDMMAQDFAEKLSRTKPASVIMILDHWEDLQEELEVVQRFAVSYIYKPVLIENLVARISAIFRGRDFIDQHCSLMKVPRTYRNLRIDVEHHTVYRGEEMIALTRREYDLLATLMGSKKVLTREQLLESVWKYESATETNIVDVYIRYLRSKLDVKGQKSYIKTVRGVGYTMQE

Molecule: RitR ALR (REC) receiver domain, wild-type (from UniProt A0ACD7PPZ9 1-124) (domain or fragment)
- binding [1]: no binding
- binding [2]: no binding
- binding [3]: no binding

B1: Repressor of Iron Transport Regulator (RitR), full-length, wild-type, A0ACD7PPZ9 1-229 (protein)
chain: MGKRILLLEKERNLAHFLSLELQKEQYRVDLVEEGQKALSMALQTDYDLILLNVNLGDMMAQDFAEKLSRTKPASVIMILDHWEDLQEELEVVQRFAVSYIYKPVLIENLVARISAIFRGRDFIDQHCSLMKVPRTYRNLRIDVEHHTVYRGEEMIALTRREYDLLATLMGSKKVLTREQLLESVWKYESATETNIVDVYIRYLRSKLDVKGQKSYIKTVRGVGYTMQE
- binding [4]: no binding
